# Assay results reported in PubChem BioAssay AID1487 (National Center for Advancing Translational Sciences (NCATS), 2009).
# Where “and” joins values, the source holds several entries; their conditions need not be identical. Equal values may be shown once. The list shows a part of the results. Further columns of the screen follow, without active or inactive calls. Most of these compounds were active or inconclusive in the main read-out, so they are no random draw. Words in brackets tell the shape of the fitted curve; partial curves, single points and poor fits give uncertain potencies.
# Assay: qHTS Assay for Modulators of Lamin A Splicing
# Settings: HeLa LMNA splicing GFP/RFP minigene ratio, 48 h
# Procedure, shortened: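 Read-out is the ratio of GFP to DsRed2 object intensity, acquired by 488 nm laser-scanning cytometry on HeLa lamin A-EGFP minigene reporter cells. Compound incubation 48 hrs at 37 °C in Opti-MEM with 2% FBS; DMSO 0.5% final.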
# [1] = measured here: RFP viability control channel
# [2] = measured here: GFP splicing reporter channel
SMILES,AC50 [1],AC50 [2]
N#CC1=C(N)Oc2cc(N)ccc2C1c1ccc(F)cc1 (stereo not given),"35.5 µM [rising, single point]",–
CCOc1ccc(CCNC(=O)c2nn(C)c3c2CSc2ccc(C)cc2-3)cc1OCC,"4.47 µM [rising, partial curve, poor fit]",–
N=c1c2c(-c3ccccc3)c(-c3ccccc3)n(Cc3ccccc3)c2ncn1CCO,"12.6 µM [falling, partial curve]","20 µM [falling, partial curve]"
O=S(=O)(c1ccc(NC2CCCCC2)cc1)N1CCOCC1,"20 µM [rising, single point]",–
Cc1ccc(-c2noc(-c3cccs3)n2)cc1,"31.6 µM [rising, single point]",–
COc1cc(NC(=S)N2CCC(C(O)(c3ccccc3)c3ccccc3)CC2)cc(OC)c1,"25.1 µM [rising, single point]","31.6 µM [rising, single point]"
O=C(NCCSCc1ccccc1)c1ccc(C2SCC(=O)N2Cc2ccccc2)cc1 (stereo not given),"35.5 µM [rising, single point]",–
COc1ccc(CCN(C)CCCC(C#N)(c2cc(OC)c(OC)c(OC)c2)C(C)C)cc1OC (stereo not given),"0.562 µM [falling, partial curve, poor fit]","35.5 µM [falling, single point]"
Clc1ccccc1-c1nc(-n2ccnc2)c2ccccc2n1,"10 µM [falling, partial curve]","3.98 µM [falling, full curve]"
CCC(C)NC(=O)Cn1c(=O)c2cccn2c2ccc(F)cc21 (stereo not given),"20 µM [rising, single point]","14.1 µM [rising, partial curve, poor fit]"
Cn1c(SCC(=O)N/N=C/C=C\c2ccco2)nc2ccccc21,"35.5 µM [falling, single point]","35.5 µM [falling, single point]"
CN(C)c1ccc(NC(=O)Cn2cc(S(=O)(=O)Cc3ccccc3Cl)c3ccccc32)cc1,–,"0.00282 µM [falling, full curve]"
O=C(NCc1ccco1)c1ccc(COc2cccc3ccccc23)cc1,"22.4 µM [rising, partial curve, poor fit]",–
Clc1cccc(-n2ncc3c(NC4CCCCCC4)ncnc32)c1,"31.6 µM [falling, partial curve]","20 µM [falling, partial curve, poor fit]"
Cc1ccc(NC(=O)CSc2nc(N)c3cc4c(nc3n2)CCCC4)cc1,"22.4 µM [rising, single point]",–
Fc1ccccc1Nc1nc(-c2ccncc2)nc2ccccc12,"11.2 µM [rising, partial curve]",–
O=C1C2CCCCN2C(=O)N1CCN1CCN(c2ccc([N+](=O)[O-])cc2)CC1 (stereo not given),"22.4 µM [rising, partial curve, poor fit]",–
Nc1cccc(-c2ccc(CO)o2)c1,–,"1.26 µM [rising, full curve, poor fit]"
OC(COCC1COc2ccccc2O1)CN1CCN(c2ccccc2F)CC1 (stereo not given),"5.62 µM [falling, single point]","5.62 µM [falling, single point]"
CCn1c(CNC(=O)c2ccccc2F)nnc1SCc1nc2ccccc2c(=O)[nH]1,–,"3.16 µM [falling, partial curve, poor fit]"
CCCN1CCC(=NNc2ccc(S(=O)(=O)N3CCOCC3)cc2[N+](=O)[O-])CC1,"7.94 µM [rising, partial curve, poor fit]",–
Cc1ccc(NC(=O)c2cc(-c3ccccc3)nn2-c2ccccc2)c(Br)c1,"35.5 µM [rising, single point]","1.12 µM [rising, partial curve, poor fit]"
O=C(Cc1ccc(S(=O)(=O)N2CCOCC2)s1)Nc1nc2c(s1)CCCC2,"22.4 µM [falling, partial curve]","22.4 µM [falling, single point]"
COC(=O)CCCCCN1C(=O)NC(c2ccccc2)C(C(=O)OCc2ccccc2)=C1C (stereo not given),"12.6 µM [rising, partial curve, poor fit]","15.8 µM [rising, partial curve]"
CS(=O)(=O)c1ccc2nc(NC(=O)c3cccc(NS(=O)(=O)c4ccc(F)c(F)c4)c3)sc2c1,"11.2 µM [rising, single point]",–
CSCCC(NS(=O)(=O)c1c(Cl)cccc1Cl)C(=O)O (stereo not given),"0.0141 µM [rising, full curve, poor fit]",–
CCN(c1ccccc1)S(=O)(=O)c1cc(C(=O)Nc2ccccc2Cl)ccc1F,"31.6 µM [rising, single point]",–

SMILES,AC50 [1],AC50 [2]
Cc1cc(S(=O)(=O)NCCc2csc(-c3cccc(F)c3)n2)ccc1F,"12.6 µM [rising, single point]",–
c1cncc(CSc2ccc(-c3cccs3)nn2)c1,"2.82 µM [rising, partial curve, poor fit]","4.47 µM [rising, partial curve, poor fit]"
O=C(Nc1ccc(C2=NCCN2)cc1)c1ccc(C(=O)Nc2ccc(C3=NCCN3)cc2)c(Cl)c1,–,"7.94 µM [rising, partial curve, poor fit]"
O=C(c1cccs1)N1CCN(S(=O)(=O)c2ccc(F)cc2)CC1,"0.0112 µM [rising, full curve, poor fit]","0.01 µM [rising, full curve]"
CCc1cccc(CC)c1NC(=O)/C(C#N)=C/c1ccccc1C(F)(F)F,"22.4 µM [falling, single point]","25.1 µM [falling, single point]"
O=C(O)c1ccc(Sc2nnc(-c3cccc(Br)c3)o2)c([N+](=O)[O-])c1,"35.5 µM [rising, single point]",–
Cc1ccc(C)c(NS(=O)(=O)c2cc(C(=O)NCCC3=CCCCC3)ccc2C)c1,"10 µM [rising, partial curve]",–
CC(C)Oc1ccccc1/C=N/Nc1ccccc1[N+](=O)[O-],"20 µM [rising, partial curve]","14.1 µM [rising, single point]"
O=C(N/N=C/c1cccc(OCc2ccccc2)c1)c1cccs1,"35.5 µM [falling, single point]","35.5 µM [falling, single point]"
COc1ccc(-c2nnc(CSc3nc4ccccc4c(=O)n3CC(C)C)o2)cc1OC,"3.55 µM [rising, single point]",–
CN(C)c1ccc(-c2nc(N(C)Cc3ccco3)c3ccccc3n2)cc1,–,"11.2 µM [rising, single point]"
CN1CCN(c2ccc([N+](=O)[O-])cc2C(=O)c2ccccc2)CC1,"15.8 µM [rising, single point]",–
O=C(O)C(O)c1ccccc1 (stereo not given),"35.5 µM [rising, partial curve, poor fit] and 7.94 µM [falling, partial curve, poor fit]","28.2 µM [rising, partial curve]"
Cn1c(SCC(=O)NNC(=O)Cc2ccccc2)nc2ccccc2c1=O,"1 µM [rising, full curve]",–
Cc1ccc(NC(=O)C(=O)NCC(c2ccc3c(c2)OCO3)N2CCN(C)CC2)cc1C (stereo not given),"0.891 µM [falling, full curve, poor fit]",–
O=C(/C=C\c1ccco1)Nc1ccc(N2CCN(C(=O)c3ccccc3)CC2)cc1,"35.5 µM [rising, single point]","0.251 µM [rising, partial curve, poor fit]"
O=C(Nc1ccccc1N1CCOCC1)C1CCN(S(=O)(=O)c2cccc(C(F)(F)F)c2)CC1,"20 µM [rising, single point]",–
C/C(=N\NC(=O)C(C)n1nc(C)c([N+](=O)[O-])c1C)c1ccccc1O (stereo not given),"14.1 µM [rising, partial curve]","6.31 µM [rising, partial curve]"
O=S(=O)(c1ccc(F)cc1)N1CCN(c2ccccn2)CC1,"15.8 µM [rising, partial curve, poor fit]",–
Cc1ccc(CCNC(=O)C2CCCN(c3nc4ccccc4o3)C2)cc1 (stereo not given),"10 µM [rising, partial curve]",–
CN(C(=S)Nc1ccc(Oc2ccccc2)cc1)c1ccc(O)cc1,"3.16 µM [falling, full curve, poor fit]","7.94 µM [falling, partial curve, poor fit]"
Nc1nc(-c2cccc(NS(=O)(=O)c3ccccc3)c2)cs1,"11.2 µM [rising, partial curve, poor fit]",–
CC1Cc2ccccc2N1C(=O)CSC1=NCCS1 (stereo not given),"6.31 µM [rising, full curve, poor fit]",–
CCN(CCCNC(=O)COc1cc(=O)n(CC)c2ccccc12)c1ccccc1,"31.6 µM [rising, single point]",–
CC(C)CNC(=O)COc1ncnc2sccc12,"3.98 µM [falling, single point]","0.02 µM [falling, full curve, poor fit]"
O=C1N=C2N(CCN3CCCCC3)c3ccccc3N2/C1=C\c1ccc([N+](=O)[O-])o1,"5.01 µM [falling, partial curve]","2.24 µM [falling, full curve]"

# Complete entries, quoted from the list:
# O=C(N/N=C/c1cccc(OCc2ccccc2)c1)c1cccs1 is entered as AC50 [1]: 35.5 µM [falling, single point]; AC50 [2]: 35.5 µM [falling, single point]
# CCc1cccc(CC)c1NC(=O)/C(C#N)=C/c1ccccc1C(F)(F)F is entered as AC50 [1]: 22.4 µM [falling, single point]; AC50 [2]: 25.1 µM [falling, single point]
# Cc1ccc(CCNC(=O)C2CCCN(c3nc4ccccc4o3)C2)cc1 (stereo not given) is entered as AC50 [1]: 10 µM [rising, partial curve]
